Measurements published in publication PMC12520364.
Results are given in words; binding and its absence hold for the method and conditions named. Binding seen in cells or lysates may run through a third protein. Where a sequence is shown, tags or fusion partners need not be part of it.

Biological target: HA-tagged SARS-CoV-2 M protein (SARS-CoV-2) (UniProt P0DTC5)
Assay: pull-down; only the binder purified

B1: Purified recombinant UBXN7-his protein (protein, UniProt O94888 1-489)
chain: MAAHGGSAASSALKGLIQQFTTITGASESVGKHMLEACNNNLEMAVTMFLDGGGIAEEPSTSSASVSTVRPHTEEEVRAPIPQKQEILVEPEPLFGAPKRRRPARSIFDGFRDFQTETIRQEQELRNGGAIDKKLTTLADLFRPPIDLMHKGSFETAKECGQMQNKWLMINIQNVQDFACQCLNRDVWSNEAVKNIIREHFIFWQVYHDSEEGQRYIQFYKLGDFPYVSILDPRTGQKLVEWHQLDVSSFLDQVTGFLGEHGQLDGLSSSPPKKCARSESLIDASEDSQLEAAIRASLQETHFDSTQTKQDSRSDEESESELFSGSEEFISVCGSDEEEEVENLAKSRKSPHKDLGHRKEENRRPLTEPPVRTDPGTATNHQGLPAVDSEILEMPPEKADGVVEGIDVNGPKAQLMLRYPDGKREQITLPEQAKLLALVKHVQSKGYPNERFELLTNFPRRKLSHLDYDITLQEAGLCPQETVFVQERN
Question: How did the binding turn out when B1 was run?
Answer: The binding was “no binding”.
